Measurements reported in PubChem BioAssay AID1508649 (National Center for Advancing Translational Sciences (NCATS), 2021).
The whole screen tested about 43,000 compounds, of which about 830 (1.9%) were called active. The source calls these results inconclusive, neither active nor inactive. Rule for the calls: active = clear falling dose curves in both reporters; inconclusive = both reporters move, but less clearly or upward; inactive = either reporter flat; the % is the NLuc reporter signal. Some results for these compounds are left out of this collection, so the calls shown say nothing about other tests.

Assay: Cell-based coincidence reporter assay to measure PMP22 gene transcription in S16 Pmp22-F2sN cells - Primary screen
Details: S16 Pmp22-F2sN Schwann cells (luciferase reporters placed in the Pmp22 gene), FLuc/NLuc coincidence luminescence, 24 h
Text: Assay Provider: Jim Inglese Ph.D. National Center for Advancing Translational Science, National Institutes of Health, Rockville, MD CMT is a heterogeneous group of neurological disorders that affect approximately 1 in 2,500 people. In particular, the most common form of CMT, CMT1A is genetically linked to the duplication of the PMP22 gene which leads to Schwann cell overexpression, thus manifesting itself as a typical case of dose-sensitive diseases. To identify small molecule compounds that can mediate the expression of PMP22 we developed a phenotypic assay screening strategy by utilizing genome editing techniques to construct Schwann cell lines containing novel reporter technology to monitor the transcriptional or translational regulation of PMP22. For high sensitivity we use a bioluminescent reporter system embedded in the 3' UTR of the PMP22 gene (S16(c9) Pmp22-F2sN) to identify compounds that inhibit gene expression. […] We can further discriminate the effect of all transcriptionally active molecules on PMP22 translation or stability with an assay that incorporates a short NLuc peptide (HiBiT) at the C-terminus of expressed PMP22 (S16(f8) PMP22-HiBiT) allowing alpha complementation and luminescence detection of membrane-associated PMP22 protein. These assays were screened against the NCATS Sytravon Library Collection. Miniaturization of these assays to 1536-well plate format for quantitative high throughput screening (qHTS) yielded rich data sets immediately from the qHTS assay (S16(c9) Pmp22-F2sN), when compared with data from a cell viability assay (Cell TiterGlo) to identify compounds that decreased the output signals through cellular toxicity to streamline the selection process of actives for subsequent characterization using the HiBiT assay (S16(f8) PMP22-HiBiT).
Cell-based coincidence reporter assay to measure PMP22 gene transcription in S16 Pmp22-F2sN cells PROTOCOL TABLE (format as described by Inglese J, Shamu CE and Guy RK. 2007) SEQUENCE No. (e.g., 1, 2, 3, etc.); […] (e.g., Cells, Incubation, Reagent, etc.); VALUE and DESCRIPTION. 1. Cells. Add 500-1,000 cells in 4 uL in growth media (DMEM High Glucose, No Phenol Red media + 10% heat-inactivated FBS + 1% Pen/Strep supplemented media) per well into Greiner 1536-well white/solid bottom high base, TC-treated plates. 2. Compounds. Library compounds and controls added at 23nL per well, transferred by Pin Tool. 3. Incubation. Incubate plates at 37C, 5% CO2, 95% RH for 24 h. 4. Reagent. Add 3.5uL Nano-Glo Dual-Luciferase Reporter Assay System reagent 1: Lysis and FLuc reagent per well of Greiner 1536-well plates. 5. Incubation. Incubate plates at room temperature for 10 min., protect from light. 6. Detector. FLuc luminescence measured using CCD-based camera (Viewlux). 7. Reagent. Add 3.5uL Nano-Glo Dual-Luciferase Reporter Assay System reagent 2: Stop&Glo reagent per well of Greiner 1536-well plates. 8. Incubation. Incubate plates at room temperature for 10 min., protect from light. 9. Detector. NLuc luminescence measured using CCD-based camera (Viewlux). NOTES (numbers refer to Sequence numbers above; values are from representative experiments) 6. Luminescence Read #1 (FLuc): Clear filter; Exposure = 10 sec, Gain = High, Speed = Slow, Binning = 2X 9. Luminescence Read #2 (NLuc): Clear filter; Exposure = 1 sec, Gain = High, Speed = Slow, Binning = 2X REFERENCES: 1. Inglese J, Shamu CE and Guy RK, Reporting data from high throughput screening of small molecule libraries, Nature Chemical Biology, 2007, 3(8): 438-441. doi.org/10.1038/nchembio0807-438 2. Yasgar A, Shinn P, Jadhav A, Auld DS, Michael S, Zheng W, Austin CP, Inglese J and Simeonov A, Compound Management for Quantitative High-Throughput Screening. J. Assoc. Lab. Auto., 2008, 13: 79-89. doi: 10.1016/j.jala.2007.12.004
Potency is the fitted concentration of half-maximal effect.

SMILES | Potency
COc1cccc(C(=O)NCC2(N3CCOCC3)CCCCC2)c1 | inconclusive: 161 µM
COc1cc(C(=O)NCC2(N(C)C)CCCCC2)cc(OC)c1OC | inconclusive: 14.7 µM
COc1ccc(C(=O)NCC2(N(C)C)CCCCC2)cc1Cl | inconclusive: 7.23 µM
CCCCOc1ccccc1C(=O)NCC1(N(C)C)CCCCC1 | inconclusive: 28.2 µM
CN(C)C1(CNC(=O)c2ccccc2F)CCCCC1 | inconclusive: 0.719 µM
CN(C)C1(CNC(=O)c2cccc(Cl)c2)CCCCC1 | inconclusive: 11.9 µM
